Results are given in words; binding and its absence hold for the method and conditions named. For part of these data: Binding seen in cells or lysates may run through a third protein. Some binding calls cover weakened binding; strength is not graded here. One block for each substance: values may come before it.
Tests used:
[1] = biological target: p85 (endogenous, in MDA-MB-486 cells) (UniProt P27986); experiment: Gab2 immunoprecipitation followed by immunoblotting with p85 antibodies
[2] = biological target: Grb2 (endogenous, in BaF3 cells) (UniProt Q60631); experiment: co-immunoprecipitation, Gab2HA-transfected BaF3 cells, with and without IL-3
[3] = biological target: T1, Shc (endogenous, in BaF3 cells) (UniProt P98083); experiment: co-immunoprecipitation, Gab2HA-transfected IL-3-stimulated BaF3 cells
T1 sequence (looked up): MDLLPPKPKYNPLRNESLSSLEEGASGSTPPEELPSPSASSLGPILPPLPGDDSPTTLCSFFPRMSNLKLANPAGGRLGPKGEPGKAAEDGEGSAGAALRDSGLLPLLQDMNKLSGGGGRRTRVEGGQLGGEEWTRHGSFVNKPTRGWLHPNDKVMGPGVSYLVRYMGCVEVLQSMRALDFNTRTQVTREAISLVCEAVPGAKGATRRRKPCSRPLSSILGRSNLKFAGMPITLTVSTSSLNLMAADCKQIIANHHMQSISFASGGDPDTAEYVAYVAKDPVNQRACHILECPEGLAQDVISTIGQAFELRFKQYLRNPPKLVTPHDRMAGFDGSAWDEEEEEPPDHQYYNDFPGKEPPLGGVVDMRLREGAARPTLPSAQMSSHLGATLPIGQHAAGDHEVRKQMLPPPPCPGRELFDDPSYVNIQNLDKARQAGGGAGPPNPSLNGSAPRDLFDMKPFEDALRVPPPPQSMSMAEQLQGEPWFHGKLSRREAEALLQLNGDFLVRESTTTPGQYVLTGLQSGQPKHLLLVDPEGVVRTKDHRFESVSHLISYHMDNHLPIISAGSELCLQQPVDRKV

Chains of the proteins cited; added tags and fusions are not shown. Lines headed by an entry give the natural chain unless they say otherwise; changes in a name come on top. Residues count along the entry.
UniProt P27986, residues 2-724: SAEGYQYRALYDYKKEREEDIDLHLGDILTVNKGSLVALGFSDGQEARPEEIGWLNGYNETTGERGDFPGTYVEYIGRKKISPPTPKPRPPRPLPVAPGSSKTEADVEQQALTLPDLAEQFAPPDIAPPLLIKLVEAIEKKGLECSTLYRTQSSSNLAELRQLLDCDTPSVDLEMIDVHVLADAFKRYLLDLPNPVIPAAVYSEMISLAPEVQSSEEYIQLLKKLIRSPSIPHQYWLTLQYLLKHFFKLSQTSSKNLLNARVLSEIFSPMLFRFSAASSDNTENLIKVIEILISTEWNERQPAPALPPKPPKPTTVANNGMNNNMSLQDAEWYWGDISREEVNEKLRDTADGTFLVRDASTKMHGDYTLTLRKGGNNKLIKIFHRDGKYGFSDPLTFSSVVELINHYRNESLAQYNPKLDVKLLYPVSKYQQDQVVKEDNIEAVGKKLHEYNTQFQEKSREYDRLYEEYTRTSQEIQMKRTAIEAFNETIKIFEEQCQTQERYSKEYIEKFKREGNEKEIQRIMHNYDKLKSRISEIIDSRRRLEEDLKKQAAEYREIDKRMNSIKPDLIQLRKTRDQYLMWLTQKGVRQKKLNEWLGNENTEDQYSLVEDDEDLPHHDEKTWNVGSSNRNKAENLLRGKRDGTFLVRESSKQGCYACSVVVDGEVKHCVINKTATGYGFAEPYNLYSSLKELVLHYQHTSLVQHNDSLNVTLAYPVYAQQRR
UniProt Q60631: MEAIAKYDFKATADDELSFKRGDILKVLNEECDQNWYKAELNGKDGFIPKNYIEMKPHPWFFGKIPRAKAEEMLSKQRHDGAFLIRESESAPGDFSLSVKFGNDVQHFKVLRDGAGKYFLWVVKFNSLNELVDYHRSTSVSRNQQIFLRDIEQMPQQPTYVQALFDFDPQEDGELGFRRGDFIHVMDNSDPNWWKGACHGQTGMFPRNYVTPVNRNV
UniProt P26450, residues 2-724: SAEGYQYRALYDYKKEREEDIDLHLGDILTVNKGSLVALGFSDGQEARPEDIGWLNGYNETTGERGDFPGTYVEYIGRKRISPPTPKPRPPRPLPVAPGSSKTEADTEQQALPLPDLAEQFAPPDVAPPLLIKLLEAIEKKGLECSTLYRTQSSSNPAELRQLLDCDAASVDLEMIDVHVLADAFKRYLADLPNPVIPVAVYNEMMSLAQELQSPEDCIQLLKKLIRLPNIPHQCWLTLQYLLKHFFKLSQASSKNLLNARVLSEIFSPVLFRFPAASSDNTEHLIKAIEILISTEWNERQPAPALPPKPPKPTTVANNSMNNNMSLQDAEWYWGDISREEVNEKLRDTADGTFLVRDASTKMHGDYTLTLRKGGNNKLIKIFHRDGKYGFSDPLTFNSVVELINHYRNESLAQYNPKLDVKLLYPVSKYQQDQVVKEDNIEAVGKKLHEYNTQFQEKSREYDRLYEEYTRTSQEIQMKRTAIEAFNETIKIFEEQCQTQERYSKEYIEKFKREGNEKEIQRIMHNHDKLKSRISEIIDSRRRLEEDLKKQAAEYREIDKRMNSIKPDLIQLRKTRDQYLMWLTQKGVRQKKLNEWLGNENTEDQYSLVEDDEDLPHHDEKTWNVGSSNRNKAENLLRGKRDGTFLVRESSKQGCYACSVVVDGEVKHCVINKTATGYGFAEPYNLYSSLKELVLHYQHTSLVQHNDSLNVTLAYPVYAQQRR
UniProt Q9UQC2: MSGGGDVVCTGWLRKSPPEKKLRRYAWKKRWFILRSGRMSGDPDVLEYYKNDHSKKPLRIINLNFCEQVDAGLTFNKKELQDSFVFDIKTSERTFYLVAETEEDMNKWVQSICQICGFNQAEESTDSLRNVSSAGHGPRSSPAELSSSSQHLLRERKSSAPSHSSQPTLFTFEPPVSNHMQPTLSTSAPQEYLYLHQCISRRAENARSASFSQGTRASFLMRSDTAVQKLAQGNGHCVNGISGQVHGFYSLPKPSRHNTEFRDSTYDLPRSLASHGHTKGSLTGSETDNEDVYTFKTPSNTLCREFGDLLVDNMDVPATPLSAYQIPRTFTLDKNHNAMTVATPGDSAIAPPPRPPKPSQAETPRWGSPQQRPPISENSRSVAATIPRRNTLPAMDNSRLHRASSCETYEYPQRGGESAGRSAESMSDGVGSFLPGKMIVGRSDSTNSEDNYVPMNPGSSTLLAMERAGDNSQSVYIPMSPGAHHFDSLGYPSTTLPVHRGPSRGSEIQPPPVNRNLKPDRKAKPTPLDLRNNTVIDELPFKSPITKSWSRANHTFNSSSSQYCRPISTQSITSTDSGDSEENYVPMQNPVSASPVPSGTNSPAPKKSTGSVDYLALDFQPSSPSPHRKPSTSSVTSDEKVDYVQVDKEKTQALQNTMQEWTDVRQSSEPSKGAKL
UniProt Q9Z1S8: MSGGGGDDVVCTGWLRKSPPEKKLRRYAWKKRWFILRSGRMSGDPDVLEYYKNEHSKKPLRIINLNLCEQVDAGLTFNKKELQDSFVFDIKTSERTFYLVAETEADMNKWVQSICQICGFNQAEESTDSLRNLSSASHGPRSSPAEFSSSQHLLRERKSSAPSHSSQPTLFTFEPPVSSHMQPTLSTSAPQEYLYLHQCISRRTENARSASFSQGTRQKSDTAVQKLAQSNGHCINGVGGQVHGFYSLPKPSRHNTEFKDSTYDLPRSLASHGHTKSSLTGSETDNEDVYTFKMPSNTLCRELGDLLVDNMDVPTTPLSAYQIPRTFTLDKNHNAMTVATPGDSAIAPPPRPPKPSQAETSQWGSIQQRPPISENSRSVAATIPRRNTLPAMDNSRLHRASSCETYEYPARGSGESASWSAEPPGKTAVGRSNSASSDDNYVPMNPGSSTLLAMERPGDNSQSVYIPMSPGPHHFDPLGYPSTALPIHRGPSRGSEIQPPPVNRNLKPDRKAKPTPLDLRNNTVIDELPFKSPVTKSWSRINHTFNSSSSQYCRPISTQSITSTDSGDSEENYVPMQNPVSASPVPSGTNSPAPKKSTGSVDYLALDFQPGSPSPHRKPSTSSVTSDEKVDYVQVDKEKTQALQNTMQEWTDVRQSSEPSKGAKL

[4] = biological target: p85 subunit of PI-3K (endogenous, in BaF3 and P210BCR-ABL BaF3 cells) (UniProt P26450); experiment: as above
[5] = biological target: T1, Shc (endogenous, in BaF3 cells); experiment: co-immunoprecipitation, transfected BaF3 cells
[6] = biological target: p85 subunit of PI-3K (endogenous, in BaF3 and P210BCR-ABL BaF3 cells) (UniProt P26450); experiment: co-immunoprecipitation, transfected BaF3 cells

binding [1]: binds
Substance: Gab2 (endogenous, in Kit225, Jurkat and MDA-MB-486 cells) (from UniProt Q9UQC2 1-676)

binding [2]: binds | binding [3]: binds | binding [4]: binds
Substance: Gab2HA (HA-tagged wild type Gab2) (from UniProt Q9Z1S8 1-665)

binding [5]: binds | binding [6]: binds
Substance: Gab2ΔY2HA (Gab2 C-terminal deletion mutant with C-terminal HA tag) (from UniProt Q9Z1S8 1-602)
